Results taken from publication PMC3406103.
No constants are given. Whether binding was seen depends on the method and setting. Binding seen in cells or lysates may run through a third protein.

Molecular target: GST-p300 histone acetyltransferase
Assay: pull-down; GST fusion proteins incubated with in vitro translated 35S-labelled HPV8 E7 and precipitated by glutathione Sepharose 4B; SDS-PAGE and autoradiography; only the target purified

B1: HPV8 E7 protein, in vitro translated and 35S-labelled (protein, UniProt P06430 1-103)
chain: MIGKEVTVQDFVLKLSEIQPEVLPVDLLCEEELPNEQETEEELDIERTVFKIVAPCGCSCCQVKLRLFVNATDSGIRTFQELLFRDLQLLCPECRGNCKHGGS
modifications: 35S-methionine-labelled
binding: no binding
